The list shows a part of the results. Further columns of the screen follow, without active or inactive calls. Compounds called inactive in the main read-out are mostly missing here. The note in brackets gives the kind of curve behind each potency; many fits are weak.
Assay: qHTS Assay for Lipid Storage Modulators in Drosophila S3 Cells;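 for cell number change: cells counted by Cell Tracker Red CMTPX staining in the red channel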
Conditions: BODIPY lipid droplet fluorescence, 18-24 h; for cell number change: measured here: cell count max response, cells fed with added oleic acid
How it was run: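 Laser-scanning cytometry quantifies lipid droplet accumulation (500–530 nm total intensity; droplet/cell object ratio) in oleic acid-fed (400 uM added) Drosophila S3 cells treated with a concentration series. 20 uM Triacsin C defined 100% inhibition.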

[1] = measured here: lipid fluorescence (Fed channel) AC50, cells fed with added oleic acid
[2] = measured here: cell number channel AC50, cells fed with added oleic acid

SMILES	cell number change	AC50 [1]	AC50 [2]
O=C(c1ccccc1)c1ccc(-n2ccnc2)c([N+](=O)[O-])c1	23.8%	0.116 µM [rising, full curve, poor fit]	–
COc1cc(NS(=O)(=O)c2ccc(NC(=S)NC(=O)c3ccc(F)c(F)c3)cc2)nc(OC)n1	–	6.51 µM [rising, partial curve]	–
CCOC(=O)C1CN(S(=O)(=O)c2ccc(C)cc2)C1	-32.4%	1.3 µM [falling, full curve]	1.3 µM [falling, full curve]
O=C(Oc1ccccc1Cl)C1CCN(C(=O)c2ccc(F)cc2)CC1	-99.4%	6.51 µM [falling, partial curve, poor fit]	29.1 µM [falling, single point]
COc1ccccc1OCC(=O)N1CCN(C(=O)c2ccco2)CC1	-1.16%	1.84 µM [rising, partial curve]	–
CCN(CC)CCCCNc1ncc2cc(-c3cc(OC)cc(OC)c3)c(NC(=O)NC(C)(C)C)nc2n1	-25.9%	0.00461 µM [falling, full curve, poor fit]	–
CC(C)NC(=O)c1cc(-n2cnnc2)ccc1Cl	–	20.6 µM [falling, partial curve]	–
CSCCC(NC(=O)COc1ccccc1)C(=O)NC1CCC(C)CC1 (stereo unspecified)	38.6%	–	29.1 µM [rising, single point]
O=C(Nc1cccc(Cl)c1Cl)C1CC(=O)N(c2ccc(Br)cc2)C1 (stereo unspecified)	-52.1%	20.6 µM [falling, single point]	29.1 µM [falling, single point]
CCC(=O)c1ccc(N2CCN(C(=O)c3ccccc3Br)CC2)c(F)c1	–	0.731 µM [falling, partial curve]	2.06 µM [falling, partial curve]
CC1CCCCN1C(=S)NC(=O)c1ccccc1 (stereo unspecified)	6.65%	–	–
CCOc1ccc(Cl)cc1S(=O)(=O)NC1CCCC1	-5.66%	11.6 µM [falling, partial curve]	–
CCC(=O)N1CCc2cc(S(=O)(=O)N(C)c3ccc(Br)cc3)ccc21	-9.72%	0.651 µM [rising, partial curve, poor fit]	–
Cc1c(C)n(CCCN(C)C)c2ncnc(NC3CCCCC3)c12	18.3%	6.51 µM [rising, single point]	–
O=C(C1CCN(S(=O)(=O)c2cccc3cccnc23)CC1)N1CCCCC1	29.4%	6.51 µM [falling, single point]	–
Cc1cccnc1NC(=O)CNC(=O)c1cccs1	-6.15%	5.8 µM [falling, partial curve]	–
CN(c1ccccc1)c1nc(N)c([N+](=O)[O-])c(NCc2ccco2)n1	27.8%	18.4 µM [rising, single point]	–
O=C(Nc1cccc(S(=O)(=O)N2CCCCC2)c1)c1ccc2ncsc2c1	22.5%	1.16 µM [rising, full curve]	1.84 µM [rising, partial curve]
Cc1ccc(S(=O)(=O)NC2=NCN(C)CN2)cc1[N+](=O)[O-]	–	29.1 µM [rising, single point]	–
CCOc1cc(/C=N/NC(=O)COc2ccc(Cl)cc2)ccc1OS(=O)(=O)c1ccccc1	-77.1%	–	16.4 µM [falling, partial curve]

Limited to AC50 [2] and cell number change, for 3 of the compounds above:
SMILES	AC50 [2]	cell number change
O=C(c1ccccc1)c1ccc(-n2ccnc2)c([N+](=O)[O-])c1	–	23.8%
O=C(Nc1cccc(Cl)c1Cl)C1CC(=O)N(c2ccc(Br)cc2)C1 (stereo unspecified)	29.1 µM [falling, single point]	-52.1%
O=C(Nc1cccc(S(=O)(=O)N2CCCCC2)c1)c1ccc2ncsc2c1	1.84 µM [rising, partial curve]	22.5%

Next compounds:

SMILES	cell number change	AC50 [1]	AC50 [2]
CCSC1=C(C#N)C(=O)n2c1cc1c2CCCC1	-25.3%	–	0.116 µM [falling, full curve, poor fit]
[O-]/[N+](=C/c1ccco1)c1ccccc1	2.47%	20.6 µM [rising, partial curve]	–
Cc1c2ccccc2c(C)c2c1ccc1ccccc12	39.5%	2.06 µM [rising, full curve]	0.411 µM [rising, full curve]
CC(=O)C12OC1CC1C3CCC4=CC(=O)CCC4(C)C3CCC12C (stereo unspecified)	25.4%	0.259 µM [rising, full curve, poor fit]	–
COc1ccc(-n2c(SCC(=O)c3ccc[nH]3)nnc2-c2ccccc2)cc1	23.9%	5.17 µM [rising, single point]	–
CCCCC1CCC(C(=O)N(C)CC(=O)Nc2cccc(F)c2)CC1 (stereo unspecified)	–	0.82 µM [falling, partial curve, poor fit]	–
CC(=O)Cc1nsc(NC(=O)c2cn(-c3ccccc3)nc2-c2ccc(Br)cc2)n1	-5.47%	0.82 µM [rising, partial curve, poor fit]	–
CC(C)C[C@H](NC(=O)OC(C)(C)C)C(=O)NCC1CCC(C(=O)N[C@@H](Cc2ccccc2)C(=O)O)CC1 (stereo partly specified)	6.94%	29.1 µM [rising, single point]	–
O=C(O)CCC(=O)N(Cc1cccs1)Cc1cccs1	-26.9%	1.3 µM [falling, full curve]	0.231 µM [falling, full curve]
CC(C)(C)c1ccc(S(=O)(=O)N2CCN(Cc3cc4c(cc3O)OCO4)CC2)cc1	-35.8%	6.51 µM [rising, single point]	29.1 µM [falling, single point]
CC1CCN(CC(C)CNC(=O)c2cc(-c3ccccn3)nc3ccccc23)CC1 (stereo unspecified)	19.4%	20.6 µM [rising, single point]	–
COc1ccc(-c2nn(-c3ccccc3C)cc2CNC(C)c2cn(C)nc2C)cc1F (stereo unspecified)	7.75%	–	–
CCc1ccccc1N(CC(=O)N1CCCC1)S(C)(=O)=O	-4.72%	0.0326 µM [falling, full curve, poor fit]	–
O=C(C[n+]1cc(Br)cc2ccccc21)c1ccc(Br)cc1	-47.3%	29.1 µM [falling, single point]	–
CC1CC(=O)C2=C(C1)OC(N)=C(C#N)C2c1coc2ccccc2c1=O (stereo unspecified)	–	–	2.91 µM [rising, partial curve]
CCOc1cc(Br)c(CN2C(=O)NC3(CCCCCC3)C2=O)cc1OCC	–	0.13 µM [rising, partial curve]	–
O=C(O)c1ccccc1-c1ccccc1C(=O)NCc1ccco1	-21.8%	23.1 µM [falling, partial curve]	–
CCNS(=O)(=O)c1ccc(CCC(=O)N2CCN(Cc3ccccc3)CC2)cc1	-16.8%	0.731 µM [rising, single point]	–
CC(C)Oc1ccc(C(=O)Nc2ccc([N+](=O)[O-])cc2)cc1	2.94%	–	–
Cc1ccc(S(=O)(=O)Nc2ccc3c(c2)nc(CCN2CCCCC2)n3C)cc1	10.2%	6.51 µM [falling, single point]	–

SMILES	cell number change	AC50 [1]	AC50 [2]
COc1ccc(CCNC(=O)CCCC(=O)n2nc(C)c3ccccc32)cc1OC	-23.2%	–	–
COCCNC(C(=O)Nc1ccc([N+](=O)[O-])cc1Br)c1ccccc1 (stereo unspecified)	30.7%	9.2 µM [rising, partial curve]	7.31 µM [rising, partial curve]
CS(=O)(=O)N1CCCC(C(=O)Nc2c(F)cccc2F)C1 (stereo unspecified)	18.5%	0.58 µM [rising, single point]	–
CCn1nc(C(=O)NCc2nnc3ccccn23)c2ccccc2c1=O	10.4%	–	–
COc1cccc(NC(=O)CN(C)C(=O)/C=C/c2cn(-c3ccccc3)nc2-c2ccc(C)cc2)c1	29.2%	1.03 µM [rising, partial curve]	0.411 µM [rising, full curve, poor fit]
S=C(NCc1ccc2c(c1)OCO2)NCc1ccco1	-34.8%	–	–
CNC(=O)C1Cc2ccccc2CN1S(=O)(=O)c1cccs1 (stereo unspecified)	-6.6%	5.17 µM [falling, full curve]	–
CN(C(=O)c1ccc(NC(=O)Cc2cccc(NC(=O)C3CCN(C(=O)C4CCCCC4)CC3)c2)cc1)C1CCCC1	-0.368%	0.731 µM [rising, single point]	–
O=C(CSc1nnc2ccccn12)Nc1nsc(-c2ccccc2)n1	7.62%	–	–
O=C(Nc1ccccc1N1CCOCC1)c1ccc2ccccc2n1	20.2%	0.461 µM [rising, partial curve]	0.013 µM [rising, full curve, poor fit]
CC1CC(C)(C)NC(=S)N1CCCC(=O)Nc1ccc(F)cc1 (stereo unspecified)	-67.2%	–	36.6 µM [falling, partial curve, poor fit]
Cc1cccc(N2CCN(C(=O)CNC(=O)C3CCCCC3)CC2)c1C	90.4%	–	13 µM [rising, partial curve]
COc1ccccc1/C=C/C(=C1/C(=O)N(c2ccccc2)N=C1C)c1ccc(C)cc1	-2.1%	–	6.51 µM [falling, single point]
CCn1c(SCCC#N)nnc1-c1ccncc1	12.6%	–	–
CCNc1nc(NCC)n2c(SCC(=O)Nc3ccc(Br)cc3F)nnc2n1	35.7%	–	23.1 µM [rising, single point]
O=S(=O)(Nc1ccc2c(c1)OCCO2)c1c(F)cccc1F	5.04%	29.1 µM [rising, single point]	–
COc1cc(OC)c(OC)cc1CN1CCN(Cc2cccc(F)c2)CC1	18.2%	–	–
Cc1ccccc1C(=O)Nc1nnc(-c2ccncc2)o1	-8.62%	23.1 µM [falling, single point]	–
Cc1cc(=O)n2[nH]c(SCc3ccccc3)nc2n1	-12%	0.0517 µM [falling, full curve, poor fit]	6.51 µM [falling, single point]
O=C1C2CCCCN2C(=O)N1CCCCN1CCN(c2ccccc2Oc2ccccc2)CC1 (stereo unspecified)	-20.4%	5.8 µM [falling, partial curve]	–

From PubChem BioAssay AID2685 (National Center for Advancing Translational Sciences (NCATS), 2010)
